Assay results as given in PubChem BioAssay AID504847 (National Center for Advancing Translational Sciences (NCATS), 2011).
Hit rate of the full screen: of about 400,000 compounds, about 3,700 (0.93%) were called active. The inconclusive results got no clear call from the source; some entries with a clear call stand among them for comparison. Calls follow the shape of the dose curve; as a rule, active = well fitted inhibition curve with a large enough effect; inconclusive = small, poorly fitted or top-dose-only effect, or another doubt; inactive = no such curve, though single readings can be large or run the other way. Potencies beside an inconclusive call are fits to weak or partial responses and may not hold up. Some compounds were tested as several samples or in several runs, with calls that do not always agree.

Sequences of proteins named here, by UniProt entry; tags and fusion partners are left off. A change or cut given only in a name is not applied to a line headed by its entry.
UniProt P11473: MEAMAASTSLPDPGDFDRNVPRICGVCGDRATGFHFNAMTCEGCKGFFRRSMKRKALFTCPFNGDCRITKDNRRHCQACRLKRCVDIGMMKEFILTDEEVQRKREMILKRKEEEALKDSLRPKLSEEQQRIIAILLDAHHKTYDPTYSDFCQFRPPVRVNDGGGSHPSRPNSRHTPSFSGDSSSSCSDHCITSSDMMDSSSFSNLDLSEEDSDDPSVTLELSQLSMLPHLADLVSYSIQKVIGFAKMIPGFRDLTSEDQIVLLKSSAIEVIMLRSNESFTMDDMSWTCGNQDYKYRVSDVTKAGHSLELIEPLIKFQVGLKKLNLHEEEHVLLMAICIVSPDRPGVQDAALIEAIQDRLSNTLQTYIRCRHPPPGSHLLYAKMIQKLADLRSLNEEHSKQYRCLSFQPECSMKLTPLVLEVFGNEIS

These molecules were tested against Vitamin D3 receptor (Homo sapiens) (UniProt P11473) (assay: Inhibitors of the vitamin D receptor (VDR): qHTS). Details: VDR-SRC2-3 peptide fluorescence polarization, 2 h; max response, negative = inhibition: active compounds read low.
Procedure, shortened: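 Fluorescence polarization assay measuring small-molecule disruption of VDR binding to the coregulator peptide SRC2-3. Compounds were pin-transferred (23 nl) into the reagent mix and incubated 2 h at room temperature before reading.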
% is scaled to controls: 0 for no effect and ±100 for the full control effect; potency is read from the fitted curve at half-maximal effect.

Max response, negative = inhibition, inactive:
COc1ccccc1NC(=O)Nc1ccc(Cl)c(S(=O)(=O)Nc2ccccc2OC)c1 -3.94%
COc1ccc(-n2c(=O)c3ccc(C(=O)NCc4ccc(C)cc4)cc3n(Cc3cccc(Cl)c3)c2=O)cc1 -7.98%
CC(C)C[C@@H](CC(=O)N[C@@H](CCCN)CC(=O)N[C@@H]1CCNC[C@H]1C(=O)N[C@H](CC(=O)N[C@@H](CCC(=O)O)CC(=O)O)Cc1ccccc1)NC(=O)[C@@H]1CNCC[C@H]1N 3.14%
CC1CCCCN1C(=O)CN1C(=O)NC2(CCCCC2C)C1=O (configuration not stated) -17.7%
Cc1ccc(CCNc2nc3c(S(=O)(=O)c4ccccc4)nnn3c3ccsc23)cc1 15.3%
CCC(CC)C(=O)Oc1c(Sc2ccccc2[N+](=O)[O-])c(C)nn1C(C)(C)C 8.77%
CCNC(=O)NC(=O)CSc1ccccc1F -15.3%
NC(=O)c1sc2nc3c(cc2c1N)CCCCCC3 -6.06%
N#Cc1nc(-c2ccc(OCc3ccccc3)cc2)oc1NCCCn1ccnc1 -2.32%
Cc1ccc(C2Nc3cc(C)c(C)cc3-n3c(-c4ccccc4)c4c(=O)n(C)c(=O)n(C)c4c32)o1 (configuration not stated) 9.26%
COCCCNC(=S)N/N=C/c1ccc(O)cc1 9.3%
CCOC(=O)c1ccccc1NC(=O)N1CCN(Cc2cc(=O)n3nc(-c4ccccc4)sc3n2)CC1 9.59%
COC(=O)c1c(-c2cccs2)csc1NC(=O)c1cccc(Cl)c1 4.25%
Nc1nc(NC2CC2)c2ncn([C@H]3C=C[C@@H](CO)C3)c2n1 3.61%
CN(C)C1(CNC(=O)COc2ccc([N+](=O)[O-])cc2)CCCCC1 5.7%
CCn1c(CN2CCOCC2)nc2cc(NC(=O)c3ccccc3[N+](=O)[O-])ccc21 4.98%
Cc1ccc(N/C(=N/S(=O)(=O)c2cccs2)c2ccccc2)c(C)c1 -15.4%
CC(C)CC1(C(=O)NCc2cc(F)cc(C(F)(F)F)c2)C=CCN1C(=O)c1ccccc1 (configuration not stated) -2.47%
COc1ccc(-n2c(Cc3ccccc3)nnc2SCc2nc(-c3cccs3)no2)cc1 11.8%
CCOC(=O)CNC(=S)N(Cc1ccccc1)Cc1cccnc1 -3.95%

Potency, active:
Cc1ccccc1Cn1cnc2c(nnn2Cc2ccc(F)cc2)c1=O 89.1 µM
CC1=C(/C=C/C(C)=C/C=C/C(C)=C\C(=O)O)C(C)(C)CCC1 50.1 µM
O=C(Cc1cccs1)NC1C(=O)N2C(C(=O)[O-])=C(C[n+]3ccccc3)CSC12 (configuration not stated) 25.1 µM
COc1ccc(OC)c(C2CC(=O)N3CN(c4cccc(Cl)c4C)CSC3=C2C#N)c1 (configuration not stated) 31.6 µM
N#Cc1c(NC(=O)Cn2nc(C(F)(F)F)c3c2CCCC3)sc2c1CCC2 79.4 µM
C/C(=N\NC(=O)c1cccs1)c1cccnc1 79.4 µM
COc1ccc(NC(=O)CN(c2cc(C)cc(C)c2)S(=O)(=O)c2c(C)n[nH]c2C)cc1 89.1 µM
S=C1Cc2ccccc2N1 2.24 µM
CC(C)C(=O)Nc1cc(S(=O)(=O)N2CCOCC2)ccc1N1CCCCC1 70.8 µM

Reprinted at random: 2 records from the list.
Potency, active:
CC(C)C(=O)Nc1cc(S(=O)(=O)N2CCOCC2)ccc1N1CCCCC1 70.8 µM
CC1=C(/C=C/C(C)=C/C=C/C(C)=C\C(=O)O)C(C)(C)CCC1 50.1 µM

Following part.

Potency, inconclusive:
Oc1ccccc1CN1CCN(C(O)(c2ccccc2)c2ccccc2)CC1 1.26 µM [inhibitor, partial curve, poor fit]
O=C1C(=O)N(C/C=C/c2ccccc2)c2ccccc21 56.2 µM [inhibitor, partial curve, poor fit]
CCOc1ccc(C(=S)N2CCN(C)CC2)cc1 89.1 µM [inhibitor, single point]
COc1ccc(-n2nc(C#N)c(Cl)cc2=O)cc1 35.5 µM [inhibitor, single point]
CCOc1ccc(CC2NCCc3cc(OCC)c(OCC)cc32)cc1OCC (configuration not stated) 89.1 µM [inhibitor, partial curve, poor fit]
CN(C)C(=S)NCc1ccccc1 35.5 µM [inhibitor, partial curve, poor fit]
Cc1csc2nc(CSc3ccc(Cl)cc3)cn12 89.1 µM [inhibitor, partial curve, poor fit]
Cc1ccc(NS(=O)(=O)c2cc(NC(=O)c3ccc4c(c3)NC(=O)CS4)ccc2C)c(C)c1 89.1 µM [inhibitor, single point]
CC/C(=C(/CC)c1ccc(O)cc1)c1ccc(O)cc1 89.1 µM [inhibitor, single point]
Cc1ccccc1-c1cc(Nc2ccc(F)cc2)ncn1 89.1 µM [inhibitor, partial curve, poor fit]
c1ccc2c(c1)Nc1nccnc1S2 79.4 µM [inhibitor, partial curve, poor fit]
CCCn1c(=O)[nH]c(=O)c2c(C(=O)OCC)cc(-c3cccs3)nc21 50.1 µM [inhibitor, partial curve]
O=C(Nc1ccc(S(=O)(=O)Nc2cnc3ccccc3n2)cc1)c1cc(F)c(F)cc1Cl 89.1 µM [inhibitor, single point]
COC(=O)CCC(=O)NC(=S)Nc1ccc(S(=O)(=O)Nc2cc(OC)nc(OC)n2)cc1 79.4 µM [inhibitor, partial curve]
CNc1ccc(Br)cc(C(=O)/C=C/c2ccc(OC)cc2OC)c1=O 70.8 µM [inhibitor, partial curve, poor fit]
O=c1nc2n(c3sc4c(c13)CCCC4)C(CBr)CS2 (configuration not stated) 5.62 µM [inhibitor, partial curve, poor fit]
N#C/C(=C\c1cccc([N+](=O)[O-])c1)c1ccccn1 44.7 µM [inhibitor, partial curve, poor fit]
O=C(N/N=C/c1ccc(O)c(O)c1O)/C(=C/c1ccc([N+](=O)[O-])cc1)NC(=O)c1ccccc1 100 µM [inhibitor, single point]
COc1ccc(C(=O)NCCS(=O)(=O)N2CCCCCC2)cc1 89.1 µM [inhibitor, partial curve, poor fit]
O=C(O)c1ccc(/C=C2\SC(=S)N(NC(=O)c3ccc(Br)cc3)C2=O)cc1 89.1 µM [inhibitor, partial curve, poor fit]
N#Cc1c(N)sc(=S)c2c1CCCCC2 50.1 µM [inhibitor, partial curve, poor fit]
COc1ccc(NC(=O)CCS(=O)(=O)c2nc(-c3ccc4c(c3)OCO4)cc(C(F)(F)F)n2)cc1 50.1 µM [inhibitor, partial curve, poor fit]
Cc1ccc(S(=O)(=O)/N=C2/NC(=O)/C(=C/c3cccnc3)S2)cc1 50.1 µM [inhibitor, partial curve, poor fit]
Nc1cc(C(=O)O)ccc1Sc1ccccc1C(=O)O 25.1 µM [inhibitor, single point]
CCOc1ccc(C(=O)c2cn(CC(=O)Nc3cccc(OC)c3)c3cc4c(cc3c2=O)OCCO4)cc1 89.1 µM [inhibitor, single point]
CC1CCc2sc(NC(=S)NC(=O)c3ccccc3)c(C#N)c2C1 (configuration not stated) 70.8 µM [inhibitor, partial curve, poor fit]
Cc1[nH]n(-c2ccccc2)c(=O)c1C(c1cc(Cl)ccc1O)c1c(C)[nH]n(-c2ccccc2)c1=O 44.7 µM [inhibitor, partial curve, poor fit]
COc1ccc(NC(=S)NC2CCCCC2)c(OC)c1 79.4 µM [inhibitor, single point]
COC(=O)c1c(-c2cccs2)csc1NC(=O)c1ccc(Br)cc1 25.1 µM [inhibitor, single point]
COc1ccc(C(CCN(Cc2ccc(OC)c(OC)c2)C(=O)CCl)c2ccccc2)cc1 (configuration not stated) 89.1 µM [inhibitor, single point]
CC/C(=N\Nc1ccc([N+](=O)[O-])cc1)c1ccccc1 7.94 µM [inhibitor, partial curve, poor fit]
NC(=S)N/N=C/c1cc([N+](=O)[O-])ccc1Cl 100 µM [inhibitor, single point]
CCCCOc1ccc(C(=O)NNC(=S)NC(=O)CC)cc1 100 µM [inhibitor, partial curve, poor fit]
CC[C@@]1(c2ccccc2)C(=O)N(C(=O)OC)N1C(=O)OC 79.4 µM [inhibitor, single point]
CCC(=O)Nc1ccc2nc(C3CC3)n(Cc3ccc(C(C)(C)C)cc3)c(=O)c2c1 20 µM [inhibitor, single point]
Cc1ccccc1-c1nc(N(C)Cc2ccco2)c2ccccc2n1 39.8 µM [inhibitor, partial curve]
CCOc1cc(/C=N/NC(=O)c2cccnc2)ccc1OCC(N)=O 89.1 µM [inhibitor, single point]
COc1ccc(-c2cc(-c3ccccc3)nc(SCC(=O)Nc3ccccc3C)c2C#N)cc1 17.8 µM [inhibitor, partial curve, poor fit]

An excerpt from above in order of count of non-hydrogen atoms, rising.
Potency, inconclusive:
Cc1ccc(S(=O)(=O)/N=C2/NC(=O)/C(=C/c3cccnc3)S2)cc1 50.1 µM [inhibitor, partial curve, poor fit]
CCCn1c(=O)[nH]c(=O)c2c(C(=O)OCC)cc(-c3cccs3)nc21 50.1 µM [inhibitor, partial curve]
O=C(Nc1ccc(S(=O)(=O)Nc2cnc3ccccc3n2)cc1)c1cc(F)c(F)cc1Cl 89.1 µM [inhibitor, single point]
